No constants are given. Whether binding was seen depends on the method and setting. In cells and extracts the contact can be indirect. Some results given as binding are weak or reduced against the parent protein; the word gives no strength. Each block holds one substance with its values, some of them ahead of it.
What was measured:
Flag-tagged CYCLIN E1 [1] = biological target: Flag-tagged CYCLIN E1 (UniProt P24864); assay: co-IP; cells transfected with the indicated plasmids; Flag-CCNE1 and HA-SPOP (MATH domain), with or without expressed CDK2
Flag-tagged CYCLIN E1 [2] = biological target: Flag-tagged CYCLIN E1 (UniProt P24864); assay: co-IP; immunoprecipitation of truncated forms of CYCLIN E1 and SPOP (Sup. Fig. 1C, D); cells and antibodies not given
Flag-tagged CYCLIN E1 [3] = biological target: Flag-tagged CYCLIN E1 (UniProt P24864); assay: co-IP; HEK293 cells transfected with the indicated plasmids for 24 h, then 10 μM MG132 for 12 h; co-IP with anti-Flag or anti-HA antibodies
[4] = biological target: endogenous CYCLIN E1 (human (endogenous in DU145)) (UniProt P24864); assay: co-IP; DU145 lysates after DMSO or MG132 (10 mM) for 12 h; co-IP with CYCLIN E1 antibody; endogenous proteins

Sequences of proteins named here, by UniProt entry; tags and fusion partners are left off. A change or cut given only in a name is not applied to a line headed by its entry.
UniProt P24864: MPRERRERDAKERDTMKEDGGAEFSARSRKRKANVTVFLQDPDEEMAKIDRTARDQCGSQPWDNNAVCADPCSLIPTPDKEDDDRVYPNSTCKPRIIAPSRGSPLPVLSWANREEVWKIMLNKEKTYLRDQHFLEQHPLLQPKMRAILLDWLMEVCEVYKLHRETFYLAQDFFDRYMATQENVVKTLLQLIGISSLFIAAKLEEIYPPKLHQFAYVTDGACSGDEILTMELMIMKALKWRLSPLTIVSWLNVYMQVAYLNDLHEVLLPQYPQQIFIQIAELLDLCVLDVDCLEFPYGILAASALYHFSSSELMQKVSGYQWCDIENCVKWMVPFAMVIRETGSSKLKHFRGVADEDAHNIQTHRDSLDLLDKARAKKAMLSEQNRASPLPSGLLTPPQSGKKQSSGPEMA
UniProt O43791: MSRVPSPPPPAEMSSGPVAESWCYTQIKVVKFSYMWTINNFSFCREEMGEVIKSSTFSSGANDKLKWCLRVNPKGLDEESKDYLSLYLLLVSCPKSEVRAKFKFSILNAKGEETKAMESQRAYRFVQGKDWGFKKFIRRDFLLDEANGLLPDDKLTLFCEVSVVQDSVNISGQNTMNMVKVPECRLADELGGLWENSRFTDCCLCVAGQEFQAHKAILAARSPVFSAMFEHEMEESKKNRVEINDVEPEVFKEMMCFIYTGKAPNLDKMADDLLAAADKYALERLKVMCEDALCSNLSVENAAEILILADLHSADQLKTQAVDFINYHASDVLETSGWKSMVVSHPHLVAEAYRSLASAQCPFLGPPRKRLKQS

binding (Flag-tagged CYCLIN E1 [1]): binds
binding (Flag-tagged CYCLIN E1 [2]): binds
Substance: HA-SPOP (MATH domain) (from UniProt O43791 31-161) (domain or fragment)

binding (Flag-tagged CYCLIN E1 [3]): binds
Substance: HA-SPOP (from UniProt O43791 1-374)

binding [4]: binds
Substance: endogenous SPOP (from UniProt O43791 1-374)

— article PMC6748103, “SPOP suppresses prostate cancer through regulation of CYCLIN E1 stability” (Cell Death and Differentiation, 2018)
